In article doi:10.1101/156513:

Molecular target: GST fused to the C-terminal region of occludin (UniProt Q61146)
Experiment: pull-down

B1: GFP-tagged ZPSG region of ZO-2 (ZPSG-2, 509-880) (domain or fragment, UniProt Q9UDY2 509-880)
chain: NTKMVRFKKGDSVGLRLAGGNDVGIFVAGIQEGTSAEQEGLQEGDQILKVNTQDFRGLVREDAVLYLLEIPKGEMVTILAQSRADVYRDILACGRGDSFFIRSHFECEKETPQSLAFTRGEVFRVVDTLYDGKLGNWLAVRIGNELEKGLIPNKSRAEQMASVQNAQRDNAGDRADFWRMRGQRSGVKKNLRKSREDLTAVVSVSTKFPAYERVLLREAGFKRPVVLFGPIADIAMEKLANELPDWFQTAKTEPKDAGSEKSTGVVRLNTVRQIIEQDKHALLDVTPKAVDLLNYTQWFPIVIFFNPDSRQGVKTMRQRLNPTSNKSSRKLFDQANKLKKTCAHLFTATINLNSANDSWFGSLKDTIQHQQG
For B1, the binding was “binds”.

These are yes or no findings as the source states them, for the method shown. In cells and extracts the contact can be indirect. Binding calls can cover weak binding; strength is not graded here. Where a sequence is shown, tags or fusion partners need not be part of it.
